For 1 substance, binding results are on record in paper PMC4837477.

Amino acid sequences for entries named in this document (tags omitted).
UniProt Q6FSK0: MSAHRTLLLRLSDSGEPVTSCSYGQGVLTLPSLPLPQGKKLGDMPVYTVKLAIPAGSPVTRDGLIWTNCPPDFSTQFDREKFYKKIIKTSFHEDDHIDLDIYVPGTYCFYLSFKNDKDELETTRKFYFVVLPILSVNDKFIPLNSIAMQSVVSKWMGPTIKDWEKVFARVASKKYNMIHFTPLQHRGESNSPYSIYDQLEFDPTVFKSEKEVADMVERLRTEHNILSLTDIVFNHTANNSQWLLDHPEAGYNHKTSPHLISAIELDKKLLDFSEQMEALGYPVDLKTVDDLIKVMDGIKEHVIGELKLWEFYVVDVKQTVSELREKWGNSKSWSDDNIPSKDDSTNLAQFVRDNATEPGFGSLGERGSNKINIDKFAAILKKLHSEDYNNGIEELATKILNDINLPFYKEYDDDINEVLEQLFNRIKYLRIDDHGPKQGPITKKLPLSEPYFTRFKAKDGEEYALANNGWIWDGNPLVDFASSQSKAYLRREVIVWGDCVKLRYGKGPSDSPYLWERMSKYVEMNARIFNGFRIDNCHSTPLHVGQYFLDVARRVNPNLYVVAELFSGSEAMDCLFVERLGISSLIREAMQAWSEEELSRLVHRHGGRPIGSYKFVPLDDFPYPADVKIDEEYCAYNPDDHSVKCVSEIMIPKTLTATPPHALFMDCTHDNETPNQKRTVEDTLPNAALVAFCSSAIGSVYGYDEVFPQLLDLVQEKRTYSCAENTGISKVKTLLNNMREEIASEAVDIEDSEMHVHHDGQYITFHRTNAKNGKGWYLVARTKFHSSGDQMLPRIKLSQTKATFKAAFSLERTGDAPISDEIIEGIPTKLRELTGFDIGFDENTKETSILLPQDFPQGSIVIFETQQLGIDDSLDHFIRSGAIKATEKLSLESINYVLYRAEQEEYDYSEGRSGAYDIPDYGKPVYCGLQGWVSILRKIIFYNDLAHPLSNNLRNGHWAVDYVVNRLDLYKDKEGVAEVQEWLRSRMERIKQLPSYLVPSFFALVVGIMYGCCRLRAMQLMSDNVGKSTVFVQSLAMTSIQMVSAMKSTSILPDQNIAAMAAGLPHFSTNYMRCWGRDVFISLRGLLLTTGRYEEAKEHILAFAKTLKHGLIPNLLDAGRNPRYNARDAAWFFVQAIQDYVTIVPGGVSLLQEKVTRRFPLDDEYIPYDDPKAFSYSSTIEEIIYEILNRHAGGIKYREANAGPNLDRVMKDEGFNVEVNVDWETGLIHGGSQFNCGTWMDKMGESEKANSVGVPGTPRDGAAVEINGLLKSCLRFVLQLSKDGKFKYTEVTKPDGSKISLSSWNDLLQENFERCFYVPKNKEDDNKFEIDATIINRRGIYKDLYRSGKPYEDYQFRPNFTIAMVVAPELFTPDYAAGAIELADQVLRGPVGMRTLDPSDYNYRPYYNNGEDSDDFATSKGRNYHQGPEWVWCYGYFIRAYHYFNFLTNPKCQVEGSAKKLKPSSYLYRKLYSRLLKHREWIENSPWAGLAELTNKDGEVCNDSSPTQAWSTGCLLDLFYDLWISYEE

These are yes or no findings as the source states them, for the method shown.

The target of the experiment is Candida glabrata glycogen debranching enzyme (Candida glabrata) (UniProt Q6FSK0). Briefly: dynamic light scattering; DynaPro Titan, 20 °C; CgGDE at 20 mg ml^-1 in 20 mM Tris pH 7.5, 200 mM NaCl, 2 mM DTT; both purified.

Regarding “Candida glabrata glycogen debranching enzyme (from UniProt Q6FSK0 1-1528)”, the binding entry is given as “no binding (tested: 20 mg ml^-1)”.
